Measurements taken from patent US20070212704.
For at least one entry, the source does not settle the construct or the ends of the probe.

The chains behind the UniProt entries cited, without tags or fusion partners.
UniProt P19821, whole entry: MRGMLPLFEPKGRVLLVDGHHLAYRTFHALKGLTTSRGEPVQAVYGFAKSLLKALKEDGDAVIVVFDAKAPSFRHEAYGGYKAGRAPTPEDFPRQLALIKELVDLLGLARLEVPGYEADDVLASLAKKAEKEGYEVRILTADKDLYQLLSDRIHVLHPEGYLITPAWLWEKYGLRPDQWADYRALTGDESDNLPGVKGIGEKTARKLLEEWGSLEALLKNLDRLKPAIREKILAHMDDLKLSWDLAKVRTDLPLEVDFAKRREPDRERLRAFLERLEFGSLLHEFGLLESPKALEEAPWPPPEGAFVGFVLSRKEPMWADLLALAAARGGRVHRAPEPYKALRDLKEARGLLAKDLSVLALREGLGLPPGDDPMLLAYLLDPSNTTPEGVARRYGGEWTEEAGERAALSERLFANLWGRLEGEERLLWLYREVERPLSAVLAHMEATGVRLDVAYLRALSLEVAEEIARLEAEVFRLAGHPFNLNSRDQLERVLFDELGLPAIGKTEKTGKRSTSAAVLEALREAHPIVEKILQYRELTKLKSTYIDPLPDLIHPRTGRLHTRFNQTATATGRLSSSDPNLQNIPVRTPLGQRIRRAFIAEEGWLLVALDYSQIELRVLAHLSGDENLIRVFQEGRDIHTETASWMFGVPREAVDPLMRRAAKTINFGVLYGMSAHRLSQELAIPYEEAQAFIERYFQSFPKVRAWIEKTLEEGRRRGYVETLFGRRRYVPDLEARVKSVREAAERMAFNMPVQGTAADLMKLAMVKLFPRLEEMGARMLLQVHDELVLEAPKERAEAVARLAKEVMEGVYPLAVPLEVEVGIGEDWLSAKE

Biological target: AmpliTaq DNA polymerase (UniProt P19821)
Assay: activity assay
Conditions: 7-deaza-dA at the four positions marked in Table 1: TCTGGGATA(deazaA)TT(deazaA)TGGTA(deazaA)ATATGT(Dabcyl-T)TTC(deazaA)TATTTATTATAATTATC(MGB-NFQ); 3' minor groove binder; purified recombinant protein; protein details: Applied Biosystems; label: internal Dabcyl-T in loop, 3' MGB-NFQ; folded or branched DNA; dose not given here

Sequence: TCTGGGATAATTATGGTAAATATGTTTTCATATTTATTATAATTATC [DNA polymerase inhibitor E]
- functional effect of the aptamer: active
